Results published in PubChem BioAssay AID2551 (National Center for Advancing Translational Sciences (NCATS), 2010).
The campaign covered roughly 310,000 compounds. About 17,000 (5.5%) were called active. The inconclusive results got no clear call from the source; some entries with a clear call stand among them for comparison. Calls follow the shape of the dose curve; as a rule, active = well fitted inhibition curve with a large enough effect; inconclusive = small, poorly fitted or top-dose-only effect, or effect the other way; inactive = no such curve, though single readings can be large or run the other way. Where the call is inconclusive, the potency comes from a doubtful curve fit.

Sequences of proteins named here, by UniProt entry; tags and fusion partners are left off. A change or cut given only in a name is not applied to a line headed by its entry.
UniProt P51450: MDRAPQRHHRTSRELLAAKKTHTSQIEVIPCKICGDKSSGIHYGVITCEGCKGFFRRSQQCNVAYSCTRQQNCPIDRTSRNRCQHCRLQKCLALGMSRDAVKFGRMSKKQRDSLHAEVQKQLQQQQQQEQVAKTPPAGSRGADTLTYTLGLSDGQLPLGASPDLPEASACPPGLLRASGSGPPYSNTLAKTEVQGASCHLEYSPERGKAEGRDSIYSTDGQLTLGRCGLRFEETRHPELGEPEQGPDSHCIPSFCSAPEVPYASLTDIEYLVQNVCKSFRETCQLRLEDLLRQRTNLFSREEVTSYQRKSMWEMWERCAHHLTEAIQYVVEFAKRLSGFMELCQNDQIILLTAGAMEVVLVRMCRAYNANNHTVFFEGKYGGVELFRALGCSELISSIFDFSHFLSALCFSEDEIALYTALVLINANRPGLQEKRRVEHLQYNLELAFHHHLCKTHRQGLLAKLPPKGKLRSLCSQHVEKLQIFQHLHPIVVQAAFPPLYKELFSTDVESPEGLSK

What follows are compounds tested against Nuclear receptor ROR-gamma (Mus musculus) (UniProt P51450) (assay: qHTS for inhibitors of ROR gamma transcriptional activity). Settings: Drosophila S2 Gal4-RORgamma UAS-luciferase reporter, 20 h; activity change, negative = inhibition: at 53.6 µM (top of the series).
Method in brief: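 Using a luciferase readout, inhibitors were identified by reduced reporter activity in Drosophila cells coexpressing a copper-inducible Gal4–ROR gamma fusion and UAS-driven Photinus luciferase, incubated 20 hr after 700 uM copper sulfate.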
% is scaled to controls: 0 for no effect and ±100 for the full control effect; potency is read from the fitted curve at half-maximal effect.
Also: nearly all actives have a fitted effect of over 60% in size.

SMILES | activity change, negative = inhibition | Potency
CCCn1nnnc1NCc1ccc(F)cc1 | inactive: -25.4% | 
C/C(=N/OCC(=O)Nc1ccccc1)c1cccs1 |  | inconclusive: 11.2 µM [activator, partial curve]
CC(C)NC(=O)CN1C(=O)c2cccc3cccc1c23 |  | inconclusive: 35.5 µM [inhibitor, single point]
COc1cccc(NC(=O)[C@@H]2CCCN2C(=O)[C@@H]2Cc3ccccc3CN2C(=O)OC(C)(C)C)c1 |  | inconclusive: 35.5 µM [activator, single point]
CC(=O)Nc1ccc(-c2cn3ccsc3n2)cc1 |  | inconclusive: 15.8 µM [inhibitor, single point]
CSc1ccccc1NC(=O)C1CC(c2ccccc2O)=NO1 (stereo not drawn) |  | inconclusive: 35.5 µM [inhibitor, single point]
NS(=O)(=O)c1ccc(CNC(=O)CNC(=O)c2ccc(Br)o2)cc1 | inactive: -0.617% | 
CC(NC(=S)Nc1ccc(F)cc1)C(c1cccs1)N1CCOCC1 (stereo not drawn) |  | active: 3.98 µM
CCOC(=O)c1sc(NC(=O)c2ccc(S(=O)(=O)N3CCOCC3)cc2)nc1-c1ccccc1 |  | inconclusive: 15.8 µM [activator, partial curve, poor fit]
COc1ccc(OC)c(C2CC(c3c(-c4ccccc4)c4cc(Cl)ccc4[nH]c3=O)=NN2S(C)(=O)=O)c1 (stereo not drawn) |  | inconclusive: 12.6 µM [activator, single point]
Cc1ccc(C(=O)c2cnc3cc4c(cc3c2S(=O)(=O)c2ccccc2)OCCO4)cc1 |  | inconclusive: 0.178 µM [activator, full curve, poor fit]
O=C(O)CN1C(=O)CNC1=O |  | inconclusive: 0.126 µM [inhibitor, full curve, poor fit]
C/C(=N\NC(=O)CNc1cccc(C(F)(F)F)c1)c1cccs1 | inactive: 40.2% | 
CCCN(CCC)c1ncnc2nc[nH]c12 |  | inconclusive: 20 µM [inhibitor, single point]
COc1ccc(CN(C)C(C)C(=O)Nc2ccc([N+](=O)[O-])cc2Cl)cc1OC (stereo not drawn) |  | inconclusive: 31.6 µM [activator, single point]
Cc1nnc(Nc2ccc3c(c2)ncn3C)c2ccccc12 |  | inconclusive: 35.5 µM [inhibitor, single point]
Cc1cc2nc(/C(C#N)=C\c3ccc(-c4ccccc4C(=O)O)o3)[nH]c2cc1C |  | inconclusive: 0.178 µM [activator, partial curve]
O=C(Nc1ccc(S(=O)(=O)Nc2ncccn2)cc1)c1ccc2ncsc2c1 | inactive: 20.7% | 
CC(C)N1C(=O)CC2(CC[N+](C)(CCOC(=O)C(c3ccccc3)c3ccccc3)CC2)C1=O (stereo not drawn) | inactive: 2.48% | 
COc1cc2nc(C3CC3)n(NC(=O)c3ccc(F)cc3)c(=O)c2cc1OC | inactive: -6.63% | 
COc1ccc(Nc2cccccc2=O)cc1 | inactive: -0.29% | 
Cc1ccn2c(C(=O)N/N=C\c3cccs3)c(C)nc2c1 |  | inconclusive: 15.8 µM [inhibitor, partial curve, poor fit]
O=S(=O)(Nc1cccc2cccnc12)c1ccccc1O |  | active: 2 µM
O=C(Nc1ccccc1)Nc1ccc(C(=O)N2CCCC2)cc1 |  | inconclusive: 11.2 µM [inhibitor, partial curve]
Cc1ccccc1NC(=O)CCCN1C(=O)C2CC=CCC2C1=O (stereo not drawn) | inactive: 0% | 
O=C(O)COCc1nc2ccccc2[nH]1 |  | inconclusive: 35.5 µM [inhibitor, single point]

SMILES | activity change, negative = inhibition | Potency
Cc1ccc(C2=NN(CC(=O)NCCC(C)C)C(=O)CC2)cc1 | inactive: -2.27% | 
CCc1ccc(NC(=S)Nc2cccc3cnccc23)cc1 |  | active: 11.2 µM
CN(C)c1ccc(-c2nc(-n3ccnc3)c3ccccc3n2)cc1 |  | inconclusive: 14.1 µM [inhibitor, single point]
Cc1nc2ccc([N+](=O)[O-])cc2c(=O)n1Cc1ccc(Br)cc1 |  | inconclusive: 35.5 µM [activator, single point]
COc1cccc(CN2CCC(C(=O)Nc3ccc(-c4cccc(C)c4)cc3)CC2)c1O |  | inconclusive: 28.2 µM [inhibitor, single point]
Cc1cc(/C=C(\C#N)C(=O)Nc2ccccc2)c(C)n1-c1ccc(C(=O)O)cc1 |  | inconclusive: 12.6 µM [activator, partial curve, poor fit]
C=C(C)C(=O)NNc1ccccc1 |  | inconclusive: 28.2 µM [inhibitor, single point]
C=CCOC(=O)N[C@@H](c1ccc(Br)cc1)C(C(C)=O)C(C)=O | inactive: -14.4% | 
COc1cc(-c2n[nH]c(=S)n2-c2ccc(C)cc2)cc(OC)c1OC | inactive: 14.8% | 
Nc1ccccc1SCc1csc(-c2ccc(Cl)cc2)n1 | inactive: 10.9% | 
COc1ccc(C2CC(c3ccccc3)=NN2C(=O)CN2CCN(Cc3ccccc3)CC2)cc1 (stereo not drawn) |  | inconclusive: 10 µM [inhibitor, partial curve, poor fit]
CCn1c(SCC(=O)Nc2ncc(C(F)(F)F)cc2Cl)nnc1-c1cccc(C)c1 |  | active: 10 µM
CCOc1ccc(OCc2ccc(C(=O)NC(C)(C)C)o2)cc1 |  | inconclusive: 35.5 µM [activator, single point]
CC(=O)c1cccc(Nc2nc(=O)c3cccnc3s2)c1 |  | inconclusive: 12.6 µM [activator, single point]
CC(C)c1ccccc1NC(=O)Cn1c(/C=C/c2ccccc2)nc2ccccc21 | inactive: -12.9% | 
C/C(=C\c1ccc2c(c1)OCO2)C(=O)c1c(C)cc(C)[nH]c1=O | inactive: -25.7% | 
CCCCCCCCCCCCCCCCCCOC[C@H](COP(=O)([O-])OCC[N+](C)(C)C)OC |  | inactive
CCOC(=O)C(/C=C(\C#N)C(=O)OCC)=C(/N)N1CCN(c2ccc(Cl)cc2)CC1 | inactive: -25.3% | 
COc1ccc(/C=N/NC(=O)COc2ccccc2-c2ccccc2)cc1 |  | inconclusive: 35.5 µM [inhibitor, single point]
O=C(O)C1CC=CCC1C(=O)NCCc1cccc(Cl)c1 (stereo not drawn) | inactive: 2.58% | 
Cc1ccc(C)c(NC(=S)NNC(=O)c2ccco2)c1 |  | active: 2.24 µM
CCOc1ccccc1C(=O)Nc1ccccc1C(N)=O |  | inconclusive: 3.16 µM [inhibitor, single point]
N=C1S/C(=C\c2ccc(-c3cccc(Cl)c3)o2)C(=O)N1c1nccs1 |  | active: 0.141 µM
COc1nc(NCc2cccnc2)nc(NC2CCCCC2)n1 | inactive: 44.1% | 
CN(/N=C/c1cc(Cl)cc(Cl)c1O)C(=S)NC(C)(C)C |  | inconclusive: 22.4 µM [inhibitor, single point]
O=C(Nc1cccc(NC(=O)c2ccc(-c3cccc(Br)c3)o2)c1)c1ccco1 |  | inconclusive: 35.5 µM [activator, single point]

SMILES | activity change, negative = inhibition | Potency
O=C1COc2ccc(C(=O)CSc3nnc(NCc4ccccc4)s3)cc2N1 | inactive: 21.9% | 
Cc1cc(N2CCC(C(=O)N3CCN(c4cccc(C)c4C)CC3)CC2)n2ncnc2n1 |  | inconclusive: 25.1 µM [activator, single point]
COc1ccc(C(=O)N/N=C/c2ccccc2OC(=O)c2ccccc2)cc1 |  | active: 3.55 µM
COc1ccc(/C=N/Nc2cc(C)nc(N3CCOCC3)n2)cc1OC | inactive: -5.22% | 
O=C(CN1CCCC1)N1c2ccccc2Sc2ccc(C(F)(F)F)cc21 | inactive: -11% | 
O=C(CS(=O)Cc1ccccc1Cl)Nc1ccccc1Cl (stereo not drawn) | inactive: 15.8% | 
CCC(=O)N(CC)c1nc(-c2ccc(OC)cc2)cs1 | inactive: 42% | 
Cc1cc(S(=O)(=O)NCC(=O)O)ccc1F | inactive: -35.1% | 
O=C(Nc1cccc(Cl)c1)OCc1cncs1 |  | inconclusive: 35.5 µM [activator, single point]
Cc1nn(Cc2c(Cl)cccc2Cl)c(Cl)c1/C=C/C(=O)OCC(=O)NCC(F)(F)F |  | inconclusive: 5.62 µM [activator, single point]
C/C(CC(=O)NCc1ccco1)=N\NC(=O)COc1ccc(Cl)cc1Cl |  | inconclusive: 35.5 µM [inhibitor, single point]
COc1ccc(CCNS(=O)(=O)c2ccccc2)cc1OC | inactive: 3.69% | 
Cc1ccc(C(=O)N/C(=C\c2ccc(-c3ccc(Br)cc3)o2)C(=O)NCCCN(C)C)cc1 |  | inconclusive: 17.8 µM [inhibitor, single point]
COCCn1c(SCC(=O)NC2CCCCC2C)nc2ccccc2c1=O (stereo not drawn) |  | inconclusive: 35.5 µM [inhibitor, single point]
CCOc1ccc(/C=C/C(=O)N(CC)CC(=O)Nc2ccc3c(c2)OCCO3)cc1OCC | inactive: 3.82% | 
COc1ccc(NC(=O)C(Cc2ccccc2)n2cccc2)cc1OC (stereo not drawn) | inactive: 17.6% | 
c1ccc(-c2csc(-c3nc4ccccc4[nH]3)n2)cc1 |  | inconclusive: 14.1 µM [inhibitor, full curve, poor fit]
Cc1nn(C(=O)CCC(=O)NCCc2ccccc2)c2ccccc12 | inactive: 6.24% | 
COc1ccc(OC)c(-n2nnnc2SCC(=O)Nc2ccccc2OC)c1 |  | inconclusive: 12.6 µM [activator, partial curve]
COc1ccc(CCNC(C)=O)cc1 | inactive: -4.91% | 
COc1ccc(C(C)NC(=S)NC2CCCCC2)cc1OC (stereo not drawn) |  | active: 11.2 µM
CN1C(=O)/C(=C\C(=O)c2cccs2)c2ccccc21 |  | active: 5.62 µM
Cc1cccc(N2C(=O)CC(NNc3nc4ccccc4s3)C2=O)c1 (stereo not drawn) |  | inconclusive: 22.4 µM [activator, single point]
O=C(N/N=C/c1cc(Br)c(O)c(Br)c1O)c1ccc2c(c1)OCCO2 |  | active: 4.47 µM
CCOC(=O)c1cc(C)sc1NC(=S)Nc1ccccc1 |  | inconclusive: 35.5 µM [inhibitor, single point]
CCN(CC)c1ccc(/C=N/NC(=O)c2ccco2)cc1 |  | active: 14.1 µM

Single records, from the list above.
Cc1cccc(N2C(=O)CC(NNc3nc4ccccc4s3)C2=O)c1 (stereo not drawn) is listed as Potency: inconclusive: 22.4 µM [activator, single point]
Cc1nn(Cc2c(Cl)cccc2Cl)c(Cl)c1/C=C/C(=O)OCC(=O)NCC(F)(F)F is listed as Potency: inconclusive: 5.62 µM [activator, single point]
O=C(CN1CCCC1)N1c2ccccc2Sc2ccc(C(F)(F)F)cc21 is listed as activity change, negative = inhibition: inactive: -11%
Cc1cc(S(=O)(=O)NCC(=O)O)ccc1F is listed as activity change, negative = inhibition: inactive: -35.1%
